Measurements: patent US20050282743A1, “Molecular interactions in cells” (Arbor Vita Corporation, priority 2001, published 2005)
Results are given in words; binding and its absence hold for the method and conditions named. Some entries that bind do so weakly or less than the wild type. Tags and fused reporters may be left off the sequences shown.

Assays:
[1] = target: T1, GST-TIP-1 (Example 3) (human) (UniProt O14907); assay: competition G assay: unlabeled Tax C-terminal 8-mer varied against 20 uM biotinylated CD95 20-mer on immobilised GST-TIP-1, streptavidin-HRP/TMB, read at A450
T1 sequence: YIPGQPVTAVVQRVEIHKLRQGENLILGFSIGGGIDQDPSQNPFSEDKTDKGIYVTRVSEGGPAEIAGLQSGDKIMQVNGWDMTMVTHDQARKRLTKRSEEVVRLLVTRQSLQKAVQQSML

[2] = target: T1, GST-TIP-1 (Example 3) (human); assay: G assay competition, unlabeled 8-mer

Binder: KHFRETEV [unlabeled 8 amino acid peptide corresponding to the C-terminus of Tax]
- binding [1]: binds
- binding [2]: binds
